Results reported in article PMC5715333.
No constants are given. Whether binding was seen depends on the method and setting. Binding seen in cells or lysates may run through a third protein. Some entries that bind do so weakly or less than the wild type. Where a sequence is shown, tags or fusion partners need not be part of it.

By UniProt entry, the sequences of proteins in these tests, tags left out.
UniProt P08151: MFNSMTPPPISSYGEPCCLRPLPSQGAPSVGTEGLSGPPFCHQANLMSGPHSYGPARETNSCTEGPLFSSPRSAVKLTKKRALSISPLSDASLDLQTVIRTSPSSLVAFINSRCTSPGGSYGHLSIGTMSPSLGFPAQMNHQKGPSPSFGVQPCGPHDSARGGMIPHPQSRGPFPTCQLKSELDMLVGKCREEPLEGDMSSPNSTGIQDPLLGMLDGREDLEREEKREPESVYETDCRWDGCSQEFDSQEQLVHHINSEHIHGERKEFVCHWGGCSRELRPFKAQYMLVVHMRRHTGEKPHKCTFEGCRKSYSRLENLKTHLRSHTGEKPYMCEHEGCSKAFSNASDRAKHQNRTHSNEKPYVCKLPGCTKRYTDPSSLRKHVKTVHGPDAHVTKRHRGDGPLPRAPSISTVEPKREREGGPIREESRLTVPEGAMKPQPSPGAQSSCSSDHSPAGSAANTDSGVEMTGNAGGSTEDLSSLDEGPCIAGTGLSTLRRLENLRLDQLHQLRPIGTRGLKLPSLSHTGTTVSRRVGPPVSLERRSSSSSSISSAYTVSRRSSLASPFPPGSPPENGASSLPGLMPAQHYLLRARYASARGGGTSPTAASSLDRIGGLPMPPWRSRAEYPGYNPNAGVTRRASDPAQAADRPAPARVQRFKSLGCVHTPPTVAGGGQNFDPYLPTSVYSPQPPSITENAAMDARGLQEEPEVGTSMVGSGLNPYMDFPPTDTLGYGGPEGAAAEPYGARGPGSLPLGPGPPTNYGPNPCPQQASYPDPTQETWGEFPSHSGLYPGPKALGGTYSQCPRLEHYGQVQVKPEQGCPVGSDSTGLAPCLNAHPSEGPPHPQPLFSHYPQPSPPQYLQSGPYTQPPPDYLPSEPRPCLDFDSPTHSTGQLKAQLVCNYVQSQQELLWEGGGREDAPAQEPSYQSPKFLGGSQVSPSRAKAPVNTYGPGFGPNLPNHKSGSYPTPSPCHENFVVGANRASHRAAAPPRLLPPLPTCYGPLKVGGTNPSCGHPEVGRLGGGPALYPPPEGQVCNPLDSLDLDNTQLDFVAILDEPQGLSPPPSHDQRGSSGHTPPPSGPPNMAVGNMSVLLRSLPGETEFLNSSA

Target: T1, suppressor of fused homolog (SUFU) (human (endogenous in PANC-1)) (UniProt Q9UMX1)
T1 sequence: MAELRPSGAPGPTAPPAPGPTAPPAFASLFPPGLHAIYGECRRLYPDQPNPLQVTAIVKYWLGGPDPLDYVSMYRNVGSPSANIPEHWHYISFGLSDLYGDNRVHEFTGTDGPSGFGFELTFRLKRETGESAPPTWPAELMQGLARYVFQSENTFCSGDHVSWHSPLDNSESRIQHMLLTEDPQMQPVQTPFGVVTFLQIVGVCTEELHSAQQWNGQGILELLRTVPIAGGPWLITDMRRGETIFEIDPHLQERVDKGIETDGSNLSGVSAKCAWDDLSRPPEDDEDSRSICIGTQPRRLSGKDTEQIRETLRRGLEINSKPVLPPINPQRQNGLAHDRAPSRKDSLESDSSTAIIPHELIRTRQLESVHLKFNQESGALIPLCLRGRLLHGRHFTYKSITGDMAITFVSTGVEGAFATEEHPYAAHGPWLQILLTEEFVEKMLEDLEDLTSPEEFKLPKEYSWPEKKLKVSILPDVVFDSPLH
Experiment: co-IP; cell lysate; 5 ug anti-Gli1 or anti-SUFU antibody per sample, Protein A/G plus agarose beads, 4°C for 4 h, immunoblot; cells untreated or treated with 10 mM lithium or 10 uM CHIR99021 for 24 h in the presence of 2 uM PYR-41

Gli1 (from UniProt P08151 1-1106)
binding: binds
